# Measured values reported in patent US20220289688A1, “RNA-TARGETING LIGANDS, COMPOSITIONS THEREOF, AND METHODS OF MAKING AND USING THE SAME” (THE UNIVERSITY OF NORTH CAROLINA AT CHAPEL HILL, priority 2019, published 2022).
# System: TPP riboswitch RNA
# Experiment: Isothermal titration calorimetry (ITC), ligand titrated into RNA
# Assay type: binding
# Conditions: linked compound 37 versus its component fragments
smiles,measurement,value
c1cc(N2CCCCC2)c(NCc2ccc3nccnc3c2)cn1 [Compound 37],E (linking coefficient),2.5
